Source: US9469650B2, “Melampomagnolide B derivatives” (BOARD OF TRUSTEES OF THE UNIVERSITY OF ARKANSAS, priority 2013, dated 2016)
The name of at least one read-out is uncertain.

Assays:
MOLT-4 = experiment: panel of 60 human tumor cell lines, growth inhibition (Leukemia)
HOP-92 = experiment: panel of 60 human tumor cell lines, growth inhibition (Non-Small Cell Lung Cancer)
OVCAR-4 = experiment: panel of 60 human tumor cell lines, growth inhibition (Ovarian Cancer); type: cell-based
ACHN = experiment: panel of 60 human tumor cell lines, growth inhibition (Renal Cancer)
UACC-62 = experiment: panel of 60 human tumor cell lines, growth inhibition (Melanoma)
NCI-H226 = experiment: panel of 60 human tumor cell lines, growth inhibition (Non-Small Cell Lung Cancer)
CAKI-1 = experiment: panel of 60 human tumor cell lines, growth inhibition (Renal Cancer)
NCI-H522 = experiment: panel of 60 human tumor cell lines, growth inhibition (Non-Small Cell Lung Cancer)
BT-549 = experiment: panel of 60 human tumor cell lines, growth inhibition (Breast Cancer); details: BT-549
IGROV1 = experiment: panel of 60 human tumor cell lines, growth inhibition (Ovarian Cancer); details: IGROVI
NCI/ADR-RES = experiment: as above
SK-OV-3 = experiment: as above
SW-620 = experiment: panel of 60 human tumor cell lines, growth inhibition (Colon Cancer)
DU-145 = experiment: panel of 60 human tumor cell lines, growth inhibition (Prostate Cancer)
NCI-H23 = experiment: panel of 60 human tumor cell lines, growth inhibition (Non-Small Cell Lung Cancer)
OVCAR-8 = experiment: panel of 60 human tumor cell lines, growth inhibition (Ovarian Cancer)
MDA-MB-435 = experiment: panel of 60 human tumor cell lines, growth inhibition (Melanoma)
NCI-H460 = experiment: panel of 60 human tumor cell lines, growth inhibition (Non-Small Cell Lung Cancer)
U251 = experiment: panel of 60 human tumor cell lines, growth inhibition (CNS Cancer)
MCF7 = experiment: panel of 60 human tumor cell lines, growth inhibition (Breast Cancer)
HCT-15 = experiment: panel of 60 human tumor cell lines, growth inhibition (Colon Cancer)

C=C1C(=O)O[C@H]2[C@H]1CC/C(COC(=S)n1ccnc1)=C\CC[C@@]1(C)O[C@@H]21 [JVM 66]
Percent Growth (MOLT-4; Log10 Concentration −4.0): −33%
Percent Growth (MOLT-4; Log10 Concentration −5.0): 38%
Percent Growth (MOLT-4; Log10 Concentration −6.0): 100%
Percent Growth (MOLT-4; Log10 Concentration −7.0): 102%
Percent Growth (MOLT-4; Log10 Concentration −8.0): 99%
Percent Growth (HOP-92; Log10 Concentration −4.0): −58%
Percent Growth (HOP-92; Log10 Concentration −5.0): 44%
Percent Growth (HOP-92; Log10 Concentration −6.0): 82%
Percent Growth (HOP-92; Log10 Concentration −7.0): 84%
Percent Growth (HOP-92; Log10 Concentration −8.0): 31%
Percent Growth (OVCAR-4; Log10 Concentration −4.0): −3%
Percent Growth (OVCAR-4; Log10 Concentration −5.0): 72%
Percent Growth (OVCAR-4; Log10 Concentration −6.0): 90%
Percent Growth (OVCAR-4; Log10 Concentration −7.0): 91%
Percent Growth (OVCAR-4; Log10 Concentration −8.0): 95%
Percent Growth (ACHN; Log10 Concentration −4.0): −87%
Percent Growth (ACHN; Log10 Concentration −5.0): 39%
Percent Growth (ACHN; Log10 Concentration −6.0): 103%
Percent Growth (ACHN; Log10 Concentration −7.0): 91%
Percent Growth (ACHN; Log10 Concentration −8.0): 95%
Percent Growth (UACC-62; Log10 Concentration −4.0): −67%
Percent Growth (UACC-62; Log10 Concentration −5.0): 70%
Percent Growth (UACC-62; Log10 Concentration −6.0): 93%
Percent Growth (UACC-62; Log10 Concentration −7.0): 94%
Percent Growth (UACC-62; Log10 Concentration −8.0): 96%
Percent Growth (NCI-H226; Log10 Concentration −4.0): 50%
Percent Growth (NCI-H226; Log10 Concentration −5.0): 78%
Percent Growth (NCI-H226; Log10 Concentration −6.0): 93%
Percent Growth (NCI-H226; Log10 Concentration −7.0): 78%
Percent Growth (NCI-H226; Log10 Concentration −8.0): 94%
Percent Growth (CAKI-1; Log10 Concentration −4.0): −67%
Percent Growth (CAKI-1; Log10 Concentration −5.0): 63%
Percent Growth (CAKI-1; Log10 Concentration −6.0): 98%
Percent Growth (CAKI-1; Log10 Concentration −7.0): 97%
Percent Growth (CAKI-1; Log10 Concentration −8.0): 96%
Percent Growth (NCI-H522; Log10 Concentration −4.0): −68%
Percent Growth (NCI-H522; Log10 Concentration −5.0): 33%
Percent Growth (NCI-H522; Log10 Concentration −6.0): 92%
Percent Growth (NCI-H522; Log10 Concentration −7.0): 87%
Percent Growth (NCI-H522; Log10 Concentration −8.0): 88%
Percent Growth (BT-549; Log10 Concentration −4.0): −15%
Percent Growth (BT-549; Log10 Concentration −5.0): 73%
Percent Growth (BT-549; Log10 Concentration −6.0): 99%
Percent Growth (BT-549; Log10 Concentration −7.0): 93%
Percent Growth (BT-549; Log10 Concentration −8.0): 96%
Percent Growth (IGROV1; Log10 Concentration −4.0): −41%
Percent Growth (IGROV1; Log10 Concentration −5.0): 48%
Percent Growth (IGROV1; Log10 Concentration −6.0): 161%
Percent Growth (IGROV1; Log10 Concentration −7.0): 100%
Percent Growth (IGROV1; Log10 Concentration −8.0): 106%
Percent Growth (NCI/ADR-RES; Log10 Concentration −4.0): 12%
Percent Growth (NCI/ADR-RES; Log10 Concentration −5.0): 85%
Percent Growth (NCI/ADR-RES; Log10 Concentration −6.0): 96%
Percent Growth (NCI/ADR-RES; Log10 Concentration −7.0): 95%
Percent Growth (NCI/ADR-RES; Log10 Concentration −8.0): 95%
Percent Growth (SK-OV-3; Log10 Concentration −4.0): 38%
Percent Growth (SK-OV-3; Log10 Concentration −5.0): 95%
Percent Growth (SK-OV-3; Log10 Concentration −6.0): 104%
Percent Growth (SK-OV-3; Log10 Concentration −7.0): 100%
Percent Growth (SK-OV-3; Log10 Concentration −8.0): 99%
Percent Growth (SW-620; Log10 Concentration −4.0): −60%
Percent Growth (SW-620; Log10 Concentration −5.0): 30%
Percent Growth (SW-620; Log10 Concentration −6.0): 94%
Percent Growth (SW-620; Log10 Concentration −7.0): 99%
Percent Growth (SW-620; Log10 Concentration −8.0): 97%
Percent Growth (DU-145; Log10 Concentration −4.0): −83%
Percent Growth (DU-145; Log10 Concentration −5.0): 63%
Percent Growth (DU-145; Log10 Concentration −6.0): 161%
Percent Growth (DU-145; Log10 Concentration −7.0): 98%
Percent Growth (DU-145; Log10 Concentration −8.0): 101%
Percent Growth (NCI-H23; Log10 Concentration −4.0): −21%
Percent Growth (NCI-H23; Log10 Concentration −5.0): 73%
Percent Growth (NCI-H23; Log10 Concentration −6.0): 101%
Percent Growth (NCI-H23; Log10 Concentration −7.0): 97%
Percent Growth (NCI-H23; Log10 Concentration −8.0): 93%
Percent Growth (OVCAR-8; Log10 Concentration −4.0): 1%
Percent Growth (OVCAR-8; Log10 Concentration −5.0): 74%
Percent Growth (OVCAR-8; Log10 Concentration −6.0): 98%
Percent Growth (OVCAR-8; Log10 Concentration −7.0): 99%
Percent Growth (OVCAR-8; Log10 Concentration −8.0): 97%
Percent Growth (MDA-MB-435; Log10 Concentration −4.0): −43%
Percent Growth (MDA-MB-435; Log10 Concentration −5.0): 77%
Percent Growth (MDA-MB-435; Log10 Concentration −6.0): 92%
Percent Growth (MDA-MB-435; Log10 Concentration −7.0): 97%
Percent Growth (MDA-MB-435; Log10 Concentration −8.0): 95%
Percent Growth (NCI-H460; Log10 Concentration −4.0): −16%
Percent Growth (NCI-H460; Log10 Concentration −5.0): 96%
Percent Growth (NCI-H460; Log10 Concentration −6.0): 103%
Percent Growth (NCI-H460; Log10 Concentration −7.0): 105%
Percent Growth (NCI-H460; Log10 Concentration −8.0): 103%
Percent Growth (U251; Log10 Concentration −4.0): 8%
Percent Growth (U251; Log10 Concentration −5.0): 94%
Percent Growth (U251; Log10 Concentration −6.0): 96%
Percent Growth (U251; Log10 Concentration −7.0): 96%
Percent Growth (U251; Log10 Concentration −8.0): 98%
Percent Growth (MCF7; Log10 Concentration −4.0): −60%
Percent Growth (MCF7; Log10 Concentration −5.0): 25%
Percent Growth (MCF7; Log10 Concentration −6.0): 91%
Percent Growth (MCF7; Log10 Concentration −7.0): 99%
Percent Growth (MCF7; Log10 Concentration −8.0): 97%
Percent Growth (HCT-15; Log10 Concentration −4.0): −55%
Percent Growth (HCT-15; Log10 Concentration −5.0): 42%
Percent Growth (HCT-15; Log10 Concentration −6.0): 91%
Percent Growth (HCT-15; Log10 Concentration −7.0): 95%
Percent Growth (HCT-15; Log10 Concentration −8.0): 93%
